Laboratory results as given in doi:10.1101/2021.12.17.473173.
Results are given in words; binding and its absence hold for the method and conditions named. Binding seen in cells or lysates may run through a third protein. Some binding calls cover weakened binding; strength is not graded here.

By UniProt entry, the sequences of proteins in these tests, tags left out.
UniProt Q9ULT8: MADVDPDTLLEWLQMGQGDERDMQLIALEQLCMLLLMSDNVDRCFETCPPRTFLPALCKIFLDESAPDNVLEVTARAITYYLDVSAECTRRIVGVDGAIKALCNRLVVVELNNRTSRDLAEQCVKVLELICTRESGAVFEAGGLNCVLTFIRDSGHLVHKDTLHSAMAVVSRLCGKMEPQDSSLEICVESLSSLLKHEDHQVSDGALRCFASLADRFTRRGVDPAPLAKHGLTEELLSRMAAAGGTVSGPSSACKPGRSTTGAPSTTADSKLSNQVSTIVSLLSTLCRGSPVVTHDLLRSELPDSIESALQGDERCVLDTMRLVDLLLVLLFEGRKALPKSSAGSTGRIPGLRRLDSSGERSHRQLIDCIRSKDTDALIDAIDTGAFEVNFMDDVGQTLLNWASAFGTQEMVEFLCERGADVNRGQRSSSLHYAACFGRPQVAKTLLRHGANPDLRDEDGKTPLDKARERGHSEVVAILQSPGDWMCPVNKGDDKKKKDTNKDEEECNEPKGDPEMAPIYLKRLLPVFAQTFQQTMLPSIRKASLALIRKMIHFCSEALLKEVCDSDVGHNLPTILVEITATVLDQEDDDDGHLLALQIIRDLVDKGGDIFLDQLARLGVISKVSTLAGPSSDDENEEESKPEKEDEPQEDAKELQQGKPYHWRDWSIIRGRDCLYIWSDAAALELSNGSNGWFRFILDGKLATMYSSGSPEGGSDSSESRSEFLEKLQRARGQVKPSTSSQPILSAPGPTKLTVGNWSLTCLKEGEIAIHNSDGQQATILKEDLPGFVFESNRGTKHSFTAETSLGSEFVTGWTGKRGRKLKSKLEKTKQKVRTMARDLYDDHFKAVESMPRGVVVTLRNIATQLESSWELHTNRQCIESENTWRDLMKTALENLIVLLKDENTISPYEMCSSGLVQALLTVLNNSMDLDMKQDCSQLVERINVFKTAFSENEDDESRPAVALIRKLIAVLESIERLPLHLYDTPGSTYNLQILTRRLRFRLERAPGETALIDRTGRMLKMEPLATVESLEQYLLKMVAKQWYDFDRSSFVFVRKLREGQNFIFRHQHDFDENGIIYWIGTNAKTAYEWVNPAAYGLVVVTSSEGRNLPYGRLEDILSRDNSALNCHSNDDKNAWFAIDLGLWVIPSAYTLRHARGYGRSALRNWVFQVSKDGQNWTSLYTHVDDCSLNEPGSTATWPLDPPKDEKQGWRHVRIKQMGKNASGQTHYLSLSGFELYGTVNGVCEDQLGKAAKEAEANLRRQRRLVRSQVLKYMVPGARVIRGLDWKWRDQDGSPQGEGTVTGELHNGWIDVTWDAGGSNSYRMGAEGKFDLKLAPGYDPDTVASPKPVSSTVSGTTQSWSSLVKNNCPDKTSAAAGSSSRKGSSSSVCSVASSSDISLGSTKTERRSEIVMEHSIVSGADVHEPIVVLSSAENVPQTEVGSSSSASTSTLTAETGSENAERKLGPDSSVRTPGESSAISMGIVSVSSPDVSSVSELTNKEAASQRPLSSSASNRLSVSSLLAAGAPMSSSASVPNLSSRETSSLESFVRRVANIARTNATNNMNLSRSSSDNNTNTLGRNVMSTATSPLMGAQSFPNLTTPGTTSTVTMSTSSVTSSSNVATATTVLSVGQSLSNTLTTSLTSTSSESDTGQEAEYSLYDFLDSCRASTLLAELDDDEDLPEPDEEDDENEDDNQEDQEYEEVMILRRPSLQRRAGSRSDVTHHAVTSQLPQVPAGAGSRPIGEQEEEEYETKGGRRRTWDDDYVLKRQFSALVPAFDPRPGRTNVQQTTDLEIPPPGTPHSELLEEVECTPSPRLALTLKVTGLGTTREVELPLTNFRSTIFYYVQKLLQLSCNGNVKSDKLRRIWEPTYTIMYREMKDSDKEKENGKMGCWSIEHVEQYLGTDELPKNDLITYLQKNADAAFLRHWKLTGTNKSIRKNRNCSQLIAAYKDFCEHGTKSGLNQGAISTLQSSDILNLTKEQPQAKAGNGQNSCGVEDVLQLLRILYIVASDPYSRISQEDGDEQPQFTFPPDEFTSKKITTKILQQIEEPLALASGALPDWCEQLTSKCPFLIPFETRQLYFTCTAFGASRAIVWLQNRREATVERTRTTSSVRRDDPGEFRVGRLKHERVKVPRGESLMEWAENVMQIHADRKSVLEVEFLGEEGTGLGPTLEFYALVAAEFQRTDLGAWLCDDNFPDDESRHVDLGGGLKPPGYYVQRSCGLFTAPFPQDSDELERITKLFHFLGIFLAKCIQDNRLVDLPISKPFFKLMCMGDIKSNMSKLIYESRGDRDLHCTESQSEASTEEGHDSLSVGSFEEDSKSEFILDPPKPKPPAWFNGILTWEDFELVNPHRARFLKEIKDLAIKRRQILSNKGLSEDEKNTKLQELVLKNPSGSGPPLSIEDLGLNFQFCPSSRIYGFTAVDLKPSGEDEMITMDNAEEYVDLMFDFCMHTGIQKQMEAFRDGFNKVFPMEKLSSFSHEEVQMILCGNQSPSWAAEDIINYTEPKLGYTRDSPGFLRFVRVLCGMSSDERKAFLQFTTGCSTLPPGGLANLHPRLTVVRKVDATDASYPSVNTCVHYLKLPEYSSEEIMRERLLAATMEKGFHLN
UniProt O43684: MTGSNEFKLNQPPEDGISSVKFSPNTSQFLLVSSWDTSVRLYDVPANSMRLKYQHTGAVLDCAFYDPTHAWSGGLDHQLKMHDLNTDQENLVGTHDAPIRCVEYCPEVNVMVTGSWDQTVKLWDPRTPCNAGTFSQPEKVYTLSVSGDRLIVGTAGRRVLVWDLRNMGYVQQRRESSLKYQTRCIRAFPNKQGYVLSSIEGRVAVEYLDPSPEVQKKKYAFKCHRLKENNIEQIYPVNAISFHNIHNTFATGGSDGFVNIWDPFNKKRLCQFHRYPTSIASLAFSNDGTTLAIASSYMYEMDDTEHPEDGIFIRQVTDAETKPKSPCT
UniProt O60566: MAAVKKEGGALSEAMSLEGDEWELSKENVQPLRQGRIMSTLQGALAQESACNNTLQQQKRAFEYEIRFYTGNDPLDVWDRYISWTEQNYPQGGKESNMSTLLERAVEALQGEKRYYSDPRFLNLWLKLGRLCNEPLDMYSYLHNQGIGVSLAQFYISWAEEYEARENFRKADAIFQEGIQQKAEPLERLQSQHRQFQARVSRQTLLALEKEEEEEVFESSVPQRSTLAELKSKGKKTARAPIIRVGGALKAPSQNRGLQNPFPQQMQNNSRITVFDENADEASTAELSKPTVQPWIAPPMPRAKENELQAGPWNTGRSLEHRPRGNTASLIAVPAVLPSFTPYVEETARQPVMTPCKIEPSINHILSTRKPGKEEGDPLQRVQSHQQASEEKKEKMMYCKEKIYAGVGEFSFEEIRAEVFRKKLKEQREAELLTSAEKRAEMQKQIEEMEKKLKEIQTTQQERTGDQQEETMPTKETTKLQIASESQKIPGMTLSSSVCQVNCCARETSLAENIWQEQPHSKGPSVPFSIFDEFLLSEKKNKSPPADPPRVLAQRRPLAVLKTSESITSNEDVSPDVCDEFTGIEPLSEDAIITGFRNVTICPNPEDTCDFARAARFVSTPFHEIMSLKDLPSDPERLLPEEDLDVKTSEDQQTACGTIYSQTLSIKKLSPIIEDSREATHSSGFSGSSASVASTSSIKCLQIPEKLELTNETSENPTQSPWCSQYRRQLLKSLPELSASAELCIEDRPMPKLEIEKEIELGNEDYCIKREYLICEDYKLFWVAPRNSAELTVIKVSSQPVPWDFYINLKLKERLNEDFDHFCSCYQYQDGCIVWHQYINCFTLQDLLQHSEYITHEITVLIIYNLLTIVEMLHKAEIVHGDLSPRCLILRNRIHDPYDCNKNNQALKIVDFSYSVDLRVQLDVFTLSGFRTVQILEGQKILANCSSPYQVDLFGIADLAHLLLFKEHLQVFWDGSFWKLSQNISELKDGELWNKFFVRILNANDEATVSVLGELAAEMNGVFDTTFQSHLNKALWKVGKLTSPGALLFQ
UniProt Q13257: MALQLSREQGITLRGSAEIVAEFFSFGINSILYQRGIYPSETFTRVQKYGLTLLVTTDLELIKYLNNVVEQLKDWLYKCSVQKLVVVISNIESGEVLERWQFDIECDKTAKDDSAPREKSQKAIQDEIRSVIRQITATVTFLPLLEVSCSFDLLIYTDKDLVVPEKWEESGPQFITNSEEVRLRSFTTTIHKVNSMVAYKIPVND

Molecular target: HECTD1 (endogenous) (human (endogenous in HEK293T)) (UniProt Q9ULT8)
Assay: co-IP

| Substance | binding |
| --- | --- |
| BUB3 (endogenous) (from UniProt O43684 1-328) | binds |
| BUBR1 (endogenous) (from UniProt O60566 1-1050) | no binding |
| MAD2 (endogenous) (from UniProt Q13257 1-205) | no binding |
